Measurements from paper PMC6872537.
No constants are given. Whether binding was seen depends on the method and setting. For some of these results: Binding seen in cells or lysates may run through a third protein. Some results given as binding are weak or reduced against the parent protein; the word gives no strength. For some of these results: Sequences can lack the tags named with a protein.

Legend:
[1] = molecular target: Flag-ING4 (human) (UniProt Q9UNL4); experiment: co-IP; lysate of HEK293T cells temporarily expressing Flag or Flag-ING4, anti-Flag antibody, protein G agarose; western blot of endogenous partner (anti-NOLC1)
[2] = molecular target: T1, GST-GNL3 (glutathione S-transferase-tagged GNL3) (human) (UniProt Q9BVP2); experiment: pull-down; GST, GST-GNL3 or GST-NOLC1 beads incubated with His-ING4; eluted with 10 mM reduced glutathione; western blot with anti-His antibody; both purified
T1 sequence: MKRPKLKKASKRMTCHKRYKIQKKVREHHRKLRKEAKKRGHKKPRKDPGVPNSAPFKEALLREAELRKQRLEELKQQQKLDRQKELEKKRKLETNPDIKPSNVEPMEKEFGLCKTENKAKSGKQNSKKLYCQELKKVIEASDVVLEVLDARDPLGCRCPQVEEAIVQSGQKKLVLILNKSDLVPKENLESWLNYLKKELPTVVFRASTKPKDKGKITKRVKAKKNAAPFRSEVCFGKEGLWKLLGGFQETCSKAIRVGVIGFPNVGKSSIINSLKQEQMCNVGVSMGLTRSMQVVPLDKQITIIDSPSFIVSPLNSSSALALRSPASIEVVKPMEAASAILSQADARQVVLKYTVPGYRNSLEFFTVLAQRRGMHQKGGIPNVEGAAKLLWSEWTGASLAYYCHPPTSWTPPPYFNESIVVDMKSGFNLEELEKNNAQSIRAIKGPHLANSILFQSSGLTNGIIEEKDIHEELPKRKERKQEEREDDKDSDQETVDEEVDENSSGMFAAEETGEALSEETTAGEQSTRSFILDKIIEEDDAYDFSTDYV

[3] = molecular target: T2, GST-NOLC1 (human) (UniProt Q14978); experiment: as above
T2 sequence: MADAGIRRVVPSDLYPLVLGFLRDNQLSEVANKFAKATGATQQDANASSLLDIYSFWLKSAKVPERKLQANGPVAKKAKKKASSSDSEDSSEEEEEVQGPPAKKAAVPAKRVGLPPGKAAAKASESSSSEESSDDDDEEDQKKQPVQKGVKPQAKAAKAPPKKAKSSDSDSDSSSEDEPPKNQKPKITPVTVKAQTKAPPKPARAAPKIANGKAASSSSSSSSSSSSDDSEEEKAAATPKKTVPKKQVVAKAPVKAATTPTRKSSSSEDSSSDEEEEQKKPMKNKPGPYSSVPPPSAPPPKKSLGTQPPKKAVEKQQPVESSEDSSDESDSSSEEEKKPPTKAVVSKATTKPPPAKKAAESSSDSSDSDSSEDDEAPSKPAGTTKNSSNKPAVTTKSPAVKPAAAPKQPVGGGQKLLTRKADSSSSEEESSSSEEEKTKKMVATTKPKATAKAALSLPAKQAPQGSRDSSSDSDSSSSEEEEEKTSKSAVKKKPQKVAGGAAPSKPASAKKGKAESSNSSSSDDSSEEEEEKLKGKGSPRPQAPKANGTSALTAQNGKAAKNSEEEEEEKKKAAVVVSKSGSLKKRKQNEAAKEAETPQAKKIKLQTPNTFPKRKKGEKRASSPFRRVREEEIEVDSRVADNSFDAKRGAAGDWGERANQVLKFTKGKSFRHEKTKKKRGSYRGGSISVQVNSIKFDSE

[4] = molecular target: GFP-ING4 (green fluorescent protein-ING4) (human) (UniProt Q9UNL4); experiment: co-IP; lysate of HAP1 cells stably expressing GFP or GFP-ING4 incubated with nanobody beads against GFP; western blot with anti-GNL3 antibody
[5] = molecular target: ING4 on beads (competitive assay) (human) (UniProt Q9UNL4); experiment: pull-down; competitive assay on ING4 beads: a constant amount of NOLC1 with increasing amounts of GNL3, and a constant amount of GNL3 with increasing amounts of NOLC1; both purified

Row | Molecule | binding [1] | binding [5] | further results
1 | GNL2, endogenous in HEK293T (from UniProt Q13823 1-731) | binds |  | 
2 | His-ING4 (from UniProt Q9UNL4 1-249) |  |  | binding [2]: binds; binding [3]: binds
3 | GNL3, endogenous in HAP1 (protein, UniProt Q9BVP2 1-549) MKRPKLKKASKRMTCHKRYKIQKKVREHHRKLRKEAKKRGHKKPRKDPGVPNSAPFKEALLREAELRKQRLEELKQQQKLDRQKELEKKRKLETNPDIKPSNVEPMEKEFGLCKTENKAKSGKQNSKKLYCQELKKVIEASDVVLEVLDARDPLGCRCPQVEEAIVQSGQKKLVLILNKSDLVPKENLESWLNYLKKELPTVVFRASTKPKDKGKITKRVKAKKNAAPFRSEVCFGKEGLWKLLGGFQETCSKAIRVGVIGFPNVGKSSIINSLKQEQMCNVGVSMGLTRSMQVVPLDKQITIIDSPSFIVSPLNSSSALALRSPASIEVVKPMEAASAILSQADARQVVLKYTVPGYRNSLEFFTVLAQRRGMHQKGGIPNVEGAAKLLWSEWTGASLAYYCHPPTSWTPPPYFNESIVVDMKSGFNLEELEKNNAQSIRAIKGPHLANSILFQSSGLTNGIIEEKDIHEELPKRKERKQEEREDDKDSDQETVDEEVDENSSGMFAAEETGEALSEETTAGEQSTRSFILDKIIEEDDAYDFSTDYV |  |  | binding [4]: binds
4 | NOLC1, endogenous in HEK293T (protein, UniProt Q14978 1-699) MADAGIRRVVPSDLYPLVLGFLRDNQLSEVANKFAKATGATQQDANASSLLDIYSFWLKSAKVPERKLQANGPVAKKAKKKASSSDSEDSSEEEEEVQGPPAKKAAVPAKRVGLPPGKAAAKASESSSSEESSDDDDEEDQKKQPVQKGVKPQAKAAKAPPKKAKSSDSDSDSSSEDEPPKNQKPKITPVTVKAQTKAPPKPARAAPKIANGKAASSSSSSSSSSSSDDSEEEKAAATPKKTVPKKQVVAKAPVKAATTPTRKSSSSEDSSSDEEEEQKKPMKNKPGPYSSVPPPSAPPPKKSLGTQPPKKAVEKQQPVESSEDSSDESDSSSEEEKKPPTKAVVSKATTKPPPAKKAAESSSDSSDSDSSEDDEAPSKPAGTTKNSSNKPAVTTKSPAVKPAAAPKQPVGGGQKLLTRKADSSSSEEESSSSEEEKTKKMVATTKPKATAKAALSLPAKQAPQGSRDSSSDSDSSSSEEEEEKTSKSAVKKKPQKVAGGAAPSKPASAKKGKAESSNSSSSDDSSEEEEEKLKGKGSPRPQAPKANGTSALTAQNGKAAKNSEEEEEEKKKAAVVVSKSGSLKKRKQNEAAKEAETPQAKKIKLQTPNTFPKRKKGEKRASSPFRRVREEEIEVDSRVADNSFDAKRGAAGDWGERANQVLKFTKGKSFRHEKTKKKRGSYRGGSISVQVNSIKFDSE | binds |  | 
5 | NOLC1 (competitive assay) (protein, UniProt Q14978 1-699) MADAGIRRVVPSDLYPLVLGFLRDNQLSEVANKFAKATGATQQDANASSLLDIYSFWLKSAKVPERKLQANGPVAKKAKKKASSSDSEDSSEEEEEVQGPPAKKAAVPAKRVGLPPGKAAAKASESSSSEESSDDDDEEDQKKQPVQKGVKPQAKAAKAPPKKAKSSDSDSDSSSEDEPPKNQKPKITPVTVKAQTKAPPKPARAAPKIANGKAASSSSSSSSSSSSDDSEEEKAAATPKKTVPKKQVVAKAPVKAATTPTRKSSSSEDSSSDEEEEQKKPMKNKPGPYSSVPPPSAPPPKKSLGTQPPKKAVEKQQPVESSEDSSDESDSSSEEEKKPPTKAVVSKATTKPPPAKKAAESSSDSSDSDSSEDDEAPSKPAGTTKNSSNKPAVTTKSPAVKPAAAPKQPVGGGQKLLTRKADSSSSEEESSSSEEEKTKKMVATTKPKATAKAALSLPAKQAPQGSRDSSSDSDSSSSEEEEEKTSKSAVKKKPQKVAGGAAPSKPASAKKGKAESSNSSSSDDSSEEEEEKLKGKGSPRPQAPKANGTSALTAQNGKAAKNSEEEEEEKKKAAVVVSKSGSLKKRKQNEAAKEAETPQAKKIKLQTPNTFPKRKKGEKRASSPFRRVREEEIEVDSRVADNSFDAKRGAAGDWGERANQVLKFTKGKSFRHEKTKKKRGSYRGGSISVQVNSIKFDSE |  | binds | 
6 | GNL3 (competitive assay) (protein, UniProt Q9BVP2 1-549) MKRPKLKKASKRMTCHKRYKIQKKVREHHRKLRKEAKKRGHKKPRKDPGVPNSAPFKEALLREAELRKQRLEELKQQQKLDRQKELEKKRKLETNPDIKPSNVEPMEKEFGLCKTENKAKSGKQNSKKLYCQELKKVIEASDVVLEVLDARDPLGCRCPQVEEAIVQSGQKKLVLILNKSDLVPKENLESWLNYLKKELPTVVFRASTKPKDKGKITKRVKAKKNAAPFRSEVCFGKEGLWKLLGGFQETCSKAIRVGVIGFPNVGKSSIINSLKQEQMCNVGVSMGLTRSMQVVPLDKQITIIDSPSFIVSPLNSSSALALRSPASIEVVKPMEAASAILSQADARQVVLKYTVPGYRNSLEFFTVLAQRRGMHQKGGIPNVEGAAKLLWSEWTGASLAYYCHPPTSWTPPPYFNESIVVDMKSGFNLEELEKNNAQSIRAIKGPHLANSILFQSSGLTNGIIEEKDIHEELPKRKERKQEEREDDKDSDQETVDEEVDENSSGMFAAEETGEALSEETTAGEQSTRSFILDKIIEEDDAYDFSTDYV |  | binds | 
